Consider 20 substances from patent US11420997 (dated 2022).

This data set is described as follows: general procedure: solution-phase peptide synthesis; soluble carrier (Tag) for liquid phase peptide synthesis (Kb, Ka, Kb-NHEt, KS1, F1, KJ1, KJ3); COMU/DIPEA; DMT-MM/DIPEA for Pro-NHEt coupling.
Setting [1] is: late stage modification step, TFA salt (compounds 11, 49), run 1.
Setting [2] is: late stage modification step, TFA salt (compounds 11, 49), run 2.
[3] abbreviates: whole synthesis, TFA salt (compounds 11, 49).
Setting [4] is: coupling step, TFA salt (compounds 11, 49).
Where [5] appears, read: late stage modification step, 4TFA, run 1.
Setting [6] is: late stage modification step, 4TFA, run 2.
[7] abbreviates: late stage modification step, TFA.

[ ]: non-standard residue; d: D form. The star is where a group is joined. His(Trt) = N[C@@H](Cc1cn(C(c2ccccc2)(c2ccccc2)c2ccccc2)cn1)C(=O)O; Pbf = Cc1c(C)c(S(=O)(=O)*)c(C)c2c1OC(C)(C)C2; pGlu = O=C1CC[C@@H](C(=O)O)N1; Boc = CC(C)(C)OC(=O)*; tBu = CC(C)(C)*

As for “Pyr-His-Trp-Ser-Tyr-dLeu-Leu-Arg-Pro-NHEt”, the “crude HPLC purity” value came out at 76.28% under setting [1]; 95.18% under setting [2]; 94.93% (late stage modification step, TFA salt (compounds 11, 49), run 3). The step yield by setting is: under setting [1], 93.0%; under setting [2], 47.5%. As for “Boc-dArg(Pbf)-Arg(Pbf)-Pro-Hyp-Gly-Thi-Ser(tBu)-dTic-Oic-Arg(Pbf)-OKb”, the crude yield under setting [3] was 81.4%. HCl.H-Ser(tBu)-D-Tic-Oic-Arg(Pbf)-OKa: the step yield under setting [4] amounted to 97.5%. As to “HCl.H-Gly-Thi-Ser(tBu)-D-Tic-Oic-Arg(Pbf)-OKa”, under setting [4], the step yield was 96.9%. As to [pGlu]HWSY[dL]LR-OH, the “crude HPLC purity” value (late stage modification step, TFA salt (compounds 11, 49)) came out at 76.28%. Take “[pGlu][His(Trt)]W(Boc)S(tBu)Y(tBu)[dL]LR(Pbf)P-NHEt”: the step yield under setting [4] is 80.51%. “4TFA.H-dArg-Arg-Pro-Hyp-Gly-Thi-Ser-dTic-Oic-Arg-OH”: under setting [5], the step yield amounted to 90.4% and the “crude HPLC purity” value is reported as 84.93%. Under setting [6], the step yield was 73.2% and the “crude HPLC purity” value was determined as 85.9%. On to “Pyr-His(Trt)-Trp(Boc)-Ser(tBu)-Tyr(tBu)-dLeu-Leu-Arg(Pbf)—O—KS1”, for which the crude yield under setting [3] turned out to be 33.7%.

As for “Pyr-His(Trt)-Trp(Boc)-Ser(tBu)-Tyr(tBu)-dLeu-Leu-Arg(Pbf)-Pro-NEt-KJ3”, under setting [3], the “crude HPLC purity” value is reported as 86.10% and the crude yield is reported as 64.6%. For the substance “Pyr-His(Trt)-Trp(Boc)-Ser(tBu)-Tyr(tBu)-dLeu-Leu-Arg(Pbf)—O—F1”, under setting [3], the crude yield is recorded as 64.6%.

As to Boc-Ser(tBu)-Pro-Leu-Gln(Trt)-OKb, the crude yield under setting [3] turned out to be 88.4%. For “HCl.H-Arg(Pbf)-Pro-Hyp-Gly-Thi-Ser(tBu)-D-Tic-Oic-Arg(Pbf)-OKa”, under setting [4], the step yield stood at 96.3%. In the case of “Pyr-His(Trt)-Trp(Boc)-Ser(tBu)-Tyr(tBu)-dLeu-Leu-Arg(Pbf)—O—KJ1”, under setting [3], the crude yield is 87.50%.

For “Pyr-His(Trt)-Trp(Boc)-Ser(tBu)-Tyr(tBu)-dLeu-Leu-Arg(Pbf)-Pro-EtNKb”, under setting [3], the crude yield turned out to be 90.83%. For the substance “HCl.H-Thi-Ser(tBu)-D-Tic-Oic-Arg(Pbf)-OKa”, the step yield under setting [4] is on record as 98.1%. “HCl.H-Pro-Hyp-Gly-Thi-Ser(tBu)-D-Tic-Oic-Arg(Pbf)-OKa”: the step yield under setting [4] is on record as 96.6%.

With TFA.H-Ser-Pro-Leu-Gln-OH, under setting [7], the “crude HPLC purity” value came to 84.93% and the step yield was determined as 78.3%. Turning to “HCl.H-D-Arg(Pbf)-Arg(Pbf)-Pro-Hyp-Gly-Thi-Ser(tBu)-D-Tic-Oic-Arg(Pbf)-OKa”, the step yield under setting [4] is reported as 96.0%. Same read-out and setting: the same measure for “HCl.H-Hyp-Gly-Thi-Ser(tBu)-D-Tic-Oic-Arg(Pbf)-OKa”: 97.2%. Take “Pyr-His(Trt)-Trp(Boc)-Ser(tBu)-Tyr(tBu)-dLeu-Leu-Arg(Pbf)-OKb”: under setting [3], the crude yield is on record as 87.50%.
